Results published in the supplement of paper PMC3334620.
Whole data set: some 33,000 sequences, median “E-score (-0.5 to 0.5)” near -0.0034, cut for the highest 2% near 0.25. The list shows a part of the results.

biological target: T1, Yap3 (UniProt P38749); test: PBM E-score (8-mer binding enrichment) (E-score (-0.5 to 0.5)); higher = stronger / more preferred TF binding; conditions: protein concentration: 100 nM; construct: GST-full length
T1 sequence: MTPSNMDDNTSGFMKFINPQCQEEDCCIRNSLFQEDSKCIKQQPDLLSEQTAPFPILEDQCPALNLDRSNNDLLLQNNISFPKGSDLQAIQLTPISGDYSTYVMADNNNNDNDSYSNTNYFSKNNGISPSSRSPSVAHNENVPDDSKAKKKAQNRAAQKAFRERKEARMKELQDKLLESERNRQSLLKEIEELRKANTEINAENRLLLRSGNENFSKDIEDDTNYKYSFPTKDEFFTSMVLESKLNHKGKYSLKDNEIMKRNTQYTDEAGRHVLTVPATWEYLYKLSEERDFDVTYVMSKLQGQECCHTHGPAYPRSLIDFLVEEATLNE
Method in brief: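 The E-score, a modified Wilcoxon-Mann-Whitney statistic, was computed by the Universal PBM Analysis Suite for every ungapped eight-base word pooled with its reverse complement. Scans behind it were normalised with masliner after bound GST-tagged yeast transcription factors were detected with fluorescent anti-GST. The proteins, at about 100-200 nM, had been applied to universal all-10-mer Agilent arrays made double-stranded by primer extension.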

Row | Sequence | PBM E-score
1 | CACACTCC | -0.0341
2 | ACAGGGCG | 0.00352
3 | TCCAGGGA | -0.252
4 | CGGGAGAC | -0.103
5 | GCTCGGGA | -0.121
6 | AACATATC | 0.189
7 | AGCGCCAG | -0.208
8 | CTGAATGC | -0.0638
9 | ATCCATTG | 0.109
10 | GGCATGGA | 0.0929
11 | GTTATGTA | 0.151
12 | AGCACCCT | -0.227
13 | CCTGTCAA | -0.0447
14 | ACTCAGGC | -0.0336
15 | ATCTTGGC | -0.00939
16 | GAACAGTC | -0.123
17 | AGAAAGAG | -0.0188
18 | AGGTGCCC | -0.273
19 | CAGGATAG | 0.0143
20 | ATGAACAT | 0.241
21 | CAAACTAG | -0.144
22 | CCCGTTTC | -0.0586

Excerpt, entries 5–10
Row | Sequence | PBM E-score
5 | GCTCGGGA | -0.121
6 | AACATATC | 0.189
7 | AGCGCCAG | -0.208
8 | CTGAATGC | -0.0638
9 | ATCCATTG | 0.109
10 | GGCATGGA | 0.0929

The listing continues.

Row | Sequence | PBM E-score
23 | ATGTGTGA | 0.0467
24 | ATCTTTCC | 0.0904
25 | GATACGTA | -0.0185
26 | CCATGCCA | -0.0801
27 | CAAGGTCA | -0.16
28 | ATTCTCGC | -0.173
29 | AGTGAAAG | 0.00072
30 | AAGTAATC | 0.153
31 | ATCAGTTA | 0.272
32 | CTTTTCTA | -0.0208
33 | ACGATGAT | -0.0821
34 | AGGTGGAT | -0.0747
35 | GTTCGGCA | -0.0135
36 | CGATCCAG | -0.0469
37 | CTTCTAAA | 0.0164
38 | TAGACTGA | -0.0011
39 | CGGTTCAC | -0.209
40 | CTAAATTC | 0.0265
41 | TCCGCACA | 0.0236
42 | CGTGGCGA | -0.105
43 | ATAAAAAA | 0.187
44 | CACTCCTA | -0.07

Row | Sequence | PBM E-score
45 | GGGTACTA | 0.112
46 | AACGTTAG | 0.111
47 | ATGAGGTA | 0.0828
48 | GACTAAGA | 0.0159
49 | AAGACGTA | 0.0429
50 | AAGCGGAT | 0.0146
51 | AGAAGTGC | -0.106
52 | AATCAACC | -0.0555
53 | AGCAAGCT | -0.244
54 | ATTTGAGA | 0.158
55 | GTGTTCTA | 0.174
56 | ACGGCGTA | -0.0154
57 | AAGGAACC | 0.0912
58 | AAAAGTAT | 0.214
59 | CTAAGAGC | -0.0549
60 | AACCTCGA | 0.0325
61 | ACGCTGAG | 0.0794
62 | ACTCACCA | -0.0571
63 | TAATGGAA | 0.256
64 | CGAATCAC | 0.111
65 | AAGACCCC | -0.191
66 | AAAATACC | 0.0504

Row | Sequence | PBM E-score
67 | AGGGCGAC | -0.093
68 | AACCGCGA | 0.175
69 | GAACATAA | 0.134
70 | CGTCATAG | -0.0803
71 | TCACCGCA | -0.103
72 | CCAGCTGG | -0.0138
73 | GGGATGAC | -0.00457
74 | AACTTGGA | 0.00371
75 | AAGCCGAC | -0.0657
76 | AGGCCCAC | -0.304
77 | GAATACGC | 0.0947
78 | ACCGTCAA | 0.0196
79 | CGTTCAGC | 0.0715
80 | CCACCTCC | -0.198
81 | ACTTCCGA | 0.0743
82 | GCGAAGAA | -0.0228
83 | GTGTCCTA | -0.0481
84 | GTGTCTGA | 0.114
85 | CGGAAGCC | -0.259
86 | AGTGGCGA | 0.176
